The supplement of paper PMC10849652
Some of the results follow.

By UniProt entry, the sequences of proteins in these tests, tags left out. Where a name states a change or a piece, a line headed by the entry shows the natural chain unless it says otherwise.
UniProt Q8N2K1: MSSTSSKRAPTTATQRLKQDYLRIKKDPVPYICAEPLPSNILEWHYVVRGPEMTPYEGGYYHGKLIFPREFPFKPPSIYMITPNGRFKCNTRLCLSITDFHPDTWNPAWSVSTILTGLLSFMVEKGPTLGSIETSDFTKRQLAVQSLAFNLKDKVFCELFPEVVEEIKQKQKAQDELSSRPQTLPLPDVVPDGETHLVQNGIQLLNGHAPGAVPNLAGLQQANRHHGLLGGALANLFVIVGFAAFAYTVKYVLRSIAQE
UniProt Q5VYS8: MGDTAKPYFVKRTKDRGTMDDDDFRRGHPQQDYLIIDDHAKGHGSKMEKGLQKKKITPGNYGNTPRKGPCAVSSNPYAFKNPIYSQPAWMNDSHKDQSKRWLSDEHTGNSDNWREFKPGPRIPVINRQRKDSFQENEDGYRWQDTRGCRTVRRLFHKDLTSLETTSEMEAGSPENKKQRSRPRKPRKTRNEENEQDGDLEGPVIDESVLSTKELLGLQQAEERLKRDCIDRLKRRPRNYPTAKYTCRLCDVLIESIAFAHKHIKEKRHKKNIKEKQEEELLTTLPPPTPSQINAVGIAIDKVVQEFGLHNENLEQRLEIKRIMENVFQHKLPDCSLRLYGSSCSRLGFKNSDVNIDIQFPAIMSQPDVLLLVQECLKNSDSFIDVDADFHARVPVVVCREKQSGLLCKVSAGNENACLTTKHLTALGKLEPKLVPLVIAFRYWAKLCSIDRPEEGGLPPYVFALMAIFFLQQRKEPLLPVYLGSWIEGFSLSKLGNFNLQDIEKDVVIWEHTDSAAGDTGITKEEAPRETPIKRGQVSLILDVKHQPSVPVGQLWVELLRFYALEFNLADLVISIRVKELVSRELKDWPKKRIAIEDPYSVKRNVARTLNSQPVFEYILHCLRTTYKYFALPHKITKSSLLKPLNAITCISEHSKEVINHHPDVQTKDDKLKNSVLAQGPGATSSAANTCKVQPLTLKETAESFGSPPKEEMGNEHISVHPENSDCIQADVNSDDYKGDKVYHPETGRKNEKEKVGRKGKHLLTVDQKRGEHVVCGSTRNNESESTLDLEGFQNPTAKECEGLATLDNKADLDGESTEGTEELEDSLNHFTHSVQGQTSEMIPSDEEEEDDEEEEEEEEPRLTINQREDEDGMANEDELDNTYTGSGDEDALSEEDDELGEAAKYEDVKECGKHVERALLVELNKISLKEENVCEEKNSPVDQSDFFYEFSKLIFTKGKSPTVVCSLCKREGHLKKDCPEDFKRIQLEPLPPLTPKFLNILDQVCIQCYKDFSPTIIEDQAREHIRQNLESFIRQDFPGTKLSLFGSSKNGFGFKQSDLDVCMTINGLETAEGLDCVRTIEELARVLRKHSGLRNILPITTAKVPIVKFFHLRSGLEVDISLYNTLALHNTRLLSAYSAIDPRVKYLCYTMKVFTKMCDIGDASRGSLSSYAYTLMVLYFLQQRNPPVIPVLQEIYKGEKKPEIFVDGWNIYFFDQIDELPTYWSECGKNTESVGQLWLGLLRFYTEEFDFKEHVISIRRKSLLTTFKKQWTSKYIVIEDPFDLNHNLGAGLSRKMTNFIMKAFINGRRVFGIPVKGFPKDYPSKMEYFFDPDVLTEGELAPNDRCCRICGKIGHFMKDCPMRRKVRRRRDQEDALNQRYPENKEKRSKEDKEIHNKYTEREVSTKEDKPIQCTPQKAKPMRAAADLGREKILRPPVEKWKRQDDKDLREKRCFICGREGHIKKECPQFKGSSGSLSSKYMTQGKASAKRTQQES
UniProt Q16881, whole entry, looked up: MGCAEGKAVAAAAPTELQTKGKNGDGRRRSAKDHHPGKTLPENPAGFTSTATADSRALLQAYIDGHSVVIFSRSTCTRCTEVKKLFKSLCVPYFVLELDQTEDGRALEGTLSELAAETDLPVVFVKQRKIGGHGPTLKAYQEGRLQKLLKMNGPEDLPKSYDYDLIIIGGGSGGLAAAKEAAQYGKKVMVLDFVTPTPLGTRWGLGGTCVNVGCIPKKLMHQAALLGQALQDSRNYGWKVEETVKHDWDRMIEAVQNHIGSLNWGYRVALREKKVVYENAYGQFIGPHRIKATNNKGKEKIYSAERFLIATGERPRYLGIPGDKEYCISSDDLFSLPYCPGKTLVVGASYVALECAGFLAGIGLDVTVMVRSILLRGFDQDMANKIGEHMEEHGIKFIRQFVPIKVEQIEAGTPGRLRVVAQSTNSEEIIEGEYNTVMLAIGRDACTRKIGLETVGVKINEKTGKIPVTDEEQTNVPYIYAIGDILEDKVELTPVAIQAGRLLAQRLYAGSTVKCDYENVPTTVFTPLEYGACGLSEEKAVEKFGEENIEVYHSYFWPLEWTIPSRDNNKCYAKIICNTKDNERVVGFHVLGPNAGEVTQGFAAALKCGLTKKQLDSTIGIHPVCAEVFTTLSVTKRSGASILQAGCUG
UniProt Q3B726, whole entry, looked up: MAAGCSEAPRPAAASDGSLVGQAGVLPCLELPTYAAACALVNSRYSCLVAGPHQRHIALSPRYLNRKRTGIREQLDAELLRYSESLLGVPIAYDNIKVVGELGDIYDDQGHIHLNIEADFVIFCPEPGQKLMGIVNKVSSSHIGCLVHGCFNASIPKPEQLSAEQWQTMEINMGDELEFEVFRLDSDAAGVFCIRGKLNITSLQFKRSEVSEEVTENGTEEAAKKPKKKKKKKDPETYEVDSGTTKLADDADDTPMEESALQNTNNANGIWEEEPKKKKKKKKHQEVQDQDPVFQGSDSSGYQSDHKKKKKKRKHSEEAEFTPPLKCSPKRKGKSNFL
UniProt Q12999: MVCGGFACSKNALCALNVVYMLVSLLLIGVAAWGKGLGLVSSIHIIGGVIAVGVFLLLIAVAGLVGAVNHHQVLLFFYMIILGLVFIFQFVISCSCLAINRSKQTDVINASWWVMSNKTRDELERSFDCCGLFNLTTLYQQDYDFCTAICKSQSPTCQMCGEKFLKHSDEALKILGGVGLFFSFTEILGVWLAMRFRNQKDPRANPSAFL
UniProt O75896: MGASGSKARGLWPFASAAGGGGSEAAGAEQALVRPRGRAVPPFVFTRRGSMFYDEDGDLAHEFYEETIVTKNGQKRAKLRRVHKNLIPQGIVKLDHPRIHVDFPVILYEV
UniProt Q16762: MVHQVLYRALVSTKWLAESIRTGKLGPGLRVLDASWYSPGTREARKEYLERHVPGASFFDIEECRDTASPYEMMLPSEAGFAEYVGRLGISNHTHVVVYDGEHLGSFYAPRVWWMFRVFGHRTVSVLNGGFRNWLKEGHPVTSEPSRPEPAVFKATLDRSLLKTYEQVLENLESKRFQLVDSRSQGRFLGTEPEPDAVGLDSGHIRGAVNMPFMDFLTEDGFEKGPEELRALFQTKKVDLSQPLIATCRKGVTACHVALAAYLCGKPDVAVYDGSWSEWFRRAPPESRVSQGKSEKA
UniProt A2RUC4: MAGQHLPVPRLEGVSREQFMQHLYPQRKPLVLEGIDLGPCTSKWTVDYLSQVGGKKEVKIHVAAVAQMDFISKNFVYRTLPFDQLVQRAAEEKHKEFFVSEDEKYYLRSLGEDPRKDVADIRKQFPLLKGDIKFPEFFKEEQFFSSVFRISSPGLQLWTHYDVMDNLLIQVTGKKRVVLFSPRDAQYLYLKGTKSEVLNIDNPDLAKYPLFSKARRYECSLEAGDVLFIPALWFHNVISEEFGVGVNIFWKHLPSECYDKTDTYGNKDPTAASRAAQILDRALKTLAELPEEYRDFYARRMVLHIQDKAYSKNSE
UniProt Q96RR1: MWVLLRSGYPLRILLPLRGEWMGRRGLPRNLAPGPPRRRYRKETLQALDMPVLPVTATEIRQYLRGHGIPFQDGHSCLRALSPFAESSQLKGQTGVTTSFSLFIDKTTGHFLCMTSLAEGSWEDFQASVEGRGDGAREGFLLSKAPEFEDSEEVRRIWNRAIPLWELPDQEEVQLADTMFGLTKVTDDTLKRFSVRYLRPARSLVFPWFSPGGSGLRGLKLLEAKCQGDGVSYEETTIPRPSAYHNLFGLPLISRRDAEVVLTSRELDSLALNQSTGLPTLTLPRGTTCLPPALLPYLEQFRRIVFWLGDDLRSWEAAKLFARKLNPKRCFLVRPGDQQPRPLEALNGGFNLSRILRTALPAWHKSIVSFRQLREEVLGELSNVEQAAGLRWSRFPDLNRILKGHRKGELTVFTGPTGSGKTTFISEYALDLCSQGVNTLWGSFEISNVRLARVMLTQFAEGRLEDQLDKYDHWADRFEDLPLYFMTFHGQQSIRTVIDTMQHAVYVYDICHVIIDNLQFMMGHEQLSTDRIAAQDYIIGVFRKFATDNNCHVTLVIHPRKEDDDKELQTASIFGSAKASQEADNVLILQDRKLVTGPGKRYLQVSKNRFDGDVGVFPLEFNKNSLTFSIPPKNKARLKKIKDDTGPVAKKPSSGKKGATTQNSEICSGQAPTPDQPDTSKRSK
UniProt P33981: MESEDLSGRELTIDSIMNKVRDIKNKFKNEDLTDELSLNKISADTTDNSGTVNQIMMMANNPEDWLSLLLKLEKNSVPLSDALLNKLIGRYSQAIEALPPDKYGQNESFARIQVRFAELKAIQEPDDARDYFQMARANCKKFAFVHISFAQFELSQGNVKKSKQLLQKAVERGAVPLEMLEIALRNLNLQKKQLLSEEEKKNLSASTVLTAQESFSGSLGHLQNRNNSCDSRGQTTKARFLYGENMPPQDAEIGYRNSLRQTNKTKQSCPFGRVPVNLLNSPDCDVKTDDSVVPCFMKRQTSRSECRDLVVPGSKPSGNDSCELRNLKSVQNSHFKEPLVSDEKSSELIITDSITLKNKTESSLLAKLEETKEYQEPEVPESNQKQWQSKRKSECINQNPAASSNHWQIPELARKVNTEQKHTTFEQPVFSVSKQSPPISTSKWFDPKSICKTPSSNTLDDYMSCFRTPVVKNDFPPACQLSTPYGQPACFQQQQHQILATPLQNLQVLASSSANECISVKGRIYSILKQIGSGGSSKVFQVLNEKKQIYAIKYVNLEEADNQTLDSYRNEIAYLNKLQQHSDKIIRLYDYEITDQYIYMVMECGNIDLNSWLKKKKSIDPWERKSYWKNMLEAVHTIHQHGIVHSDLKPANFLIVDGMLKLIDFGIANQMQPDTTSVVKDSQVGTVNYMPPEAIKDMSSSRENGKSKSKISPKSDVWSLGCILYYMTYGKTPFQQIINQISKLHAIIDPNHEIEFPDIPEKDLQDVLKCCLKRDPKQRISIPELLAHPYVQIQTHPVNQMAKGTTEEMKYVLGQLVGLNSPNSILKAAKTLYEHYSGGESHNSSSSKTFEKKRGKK
UniProt Q96ET8: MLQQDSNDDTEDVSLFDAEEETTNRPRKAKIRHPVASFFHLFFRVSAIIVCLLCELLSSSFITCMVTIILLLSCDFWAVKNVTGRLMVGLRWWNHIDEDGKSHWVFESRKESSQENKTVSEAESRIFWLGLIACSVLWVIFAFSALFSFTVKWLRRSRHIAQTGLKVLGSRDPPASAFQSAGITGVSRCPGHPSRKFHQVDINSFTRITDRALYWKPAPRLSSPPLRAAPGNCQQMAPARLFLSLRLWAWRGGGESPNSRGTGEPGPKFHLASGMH
UniProt Q96RT8, whole entry, looked up: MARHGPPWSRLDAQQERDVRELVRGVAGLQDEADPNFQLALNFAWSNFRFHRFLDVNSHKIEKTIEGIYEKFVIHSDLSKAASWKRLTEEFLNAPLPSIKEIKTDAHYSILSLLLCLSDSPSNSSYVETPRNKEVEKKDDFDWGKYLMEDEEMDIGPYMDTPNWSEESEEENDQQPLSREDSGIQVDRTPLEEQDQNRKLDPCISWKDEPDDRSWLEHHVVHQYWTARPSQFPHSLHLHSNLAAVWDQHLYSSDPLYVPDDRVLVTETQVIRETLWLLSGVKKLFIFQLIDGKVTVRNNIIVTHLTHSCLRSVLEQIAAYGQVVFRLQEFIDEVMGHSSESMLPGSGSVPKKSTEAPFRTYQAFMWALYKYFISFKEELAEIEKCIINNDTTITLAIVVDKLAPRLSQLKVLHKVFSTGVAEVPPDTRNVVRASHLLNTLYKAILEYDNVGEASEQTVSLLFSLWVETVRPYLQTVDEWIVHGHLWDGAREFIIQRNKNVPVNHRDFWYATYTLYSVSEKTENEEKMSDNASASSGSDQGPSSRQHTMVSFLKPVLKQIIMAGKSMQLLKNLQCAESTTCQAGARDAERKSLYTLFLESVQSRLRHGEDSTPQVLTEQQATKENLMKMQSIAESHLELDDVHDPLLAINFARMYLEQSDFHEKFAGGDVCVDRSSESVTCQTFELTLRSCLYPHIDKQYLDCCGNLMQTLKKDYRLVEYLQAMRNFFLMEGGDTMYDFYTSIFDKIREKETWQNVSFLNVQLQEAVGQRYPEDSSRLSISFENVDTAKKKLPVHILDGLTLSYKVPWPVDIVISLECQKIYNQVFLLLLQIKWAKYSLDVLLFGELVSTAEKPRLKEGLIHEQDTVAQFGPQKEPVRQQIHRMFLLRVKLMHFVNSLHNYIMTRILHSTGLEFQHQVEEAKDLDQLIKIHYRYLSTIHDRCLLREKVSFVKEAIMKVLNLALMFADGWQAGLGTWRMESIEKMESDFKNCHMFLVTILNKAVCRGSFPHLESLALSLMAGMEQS

compound: CC1=C(C=C(C=C1)NC(=O)C2=CC(=CC=C2)C(C)(C)C#N)NC3=CC4=C(C=C3)N=CN(C4=O)C; test: log2 fold change, soluble protein after heating vs DMSO (PISA); higher = thermal stabilisation; K562 cells, 10 uM, 30 min; active = over 0.2 and 3.5 SD of the protein, either way, in both replicates (recomputed)
In short: (§1)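 K562 cells at 2×10^6 cells/mL were treated for 30 min with 10 μM compound, and aliquots were heated for 3 min over 48°C-58°C before pooling. Extraction used PBS with 0.5% NP-40 at 4°C, and soluble protein was the supernatant after 21,000xg for 90 min, measured by TMTpro 16plex LC-MS/MS with channel sums equalised. Thermal stability values, relative to control samples and from duplicates, are log2 fold changes.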

Row | Target | log2 fold change
1 | UBE2J2 isoform 3 (UniProt Q8N2K1) | inactive: -0.085
2 | TTC14 (UniProt Q96N46) | inactive: -0.129
3 | TYRO3 (UniProt Q06418) | inactive: -0.189
4 | TUT7 (UniProt Q5VYS8) | inactive: -0.052
5 | TSPAN17 isoform 4 (UniProt Q96FV3) | inactive: -0.024
6 | TYK2 (UniProt P29597) | inactive: -0.11
7 | TXNRD1 isoform 7 (UniProt Q16881) | inactive: -0.567
8 | TWISTNB (UniProt Q3B726) | inactive: -0.306
9 | TSPAN31 (UniProt Q12999) | inactive: -0.028
10 | TUSC2 (UniProt O75896) | inactive: -0.009
11 | TST (UniProt Q16762) | inactive: -0.027
12 | TUBA4A (UniProt C9JJQ8) | inactive: -0.019

compound: CC1=C(C=C(C=C1)NC(=O)C2=CC(=CC=C2)N(C)C)NC(=O)C3=CC=C(C=C3)O; test: as above
In short: as §1

Row | Target | log2 fold change
13 | TTC26 | inactive: 0.116
14 | TYW5 (UniProt A2RUC4) | inactive: 0.006
15 | TSPAN4 (UniProt O14817) | inactive: -0.071
16 | TWNK (UniProt Q96RR1) | inactive: 0.115
17 | TTC37 (UniProt Q6PGP7) | inactive: 0.069
18 | TTK (UniProt P33981) | inactive: 0.037

compound: CC1=CC=C(C=C1)SC2=C3C=C(SC3=CN=C2)C(=O)N; test: as above
In short: as §1

Row | Target | log2 fold change
19 | UBE2J2 isoform 3 (UniProt Q8N2K1) | inactive: 0.024
20 | TVP23C (UniProt Q96ET8) | inactive: 0.024
21 | TTC17 isoform 2 (UniProt Q96AE7) | inactive: 0.122
22 | UBAP2L (UniProt F8W726) | inactive: -0.093
23 | TYW5 (UniProt A2RUC4) | inactive: -0.023
24 | TYK2 (UniProt P29597) | inactive: -0.096
25 | TSPYL1 (UniProt Q9H0U9) | inactive: -0.193
26 | TXNRD1 isoform 7 (UniProt Q16881) | inactive: -0.037
27 | TSKU (UniProt Q8WUA8) | inactive: -0.071
28 | TUBGCP5 (UniProt Q96RT8) | inactive: 0.016
29 | TWISTNB (UniProt Q3B726) | inactive: -0.204
30 | TTC21B (UniProt Q7Z4L5) | inactive: -0.117
31 | TSPAN31 (UniProt Q12999) | inactive: 0.054
32 | TST (UniProt Q16762) | inactive: -0.048
33 | TUBA4A (UniProt C9JJQ8) | inactive: 0.022

compound: CC1=NC(=CC=C1)C2=C(N=C(N2)C(C)(C)C)C3=CC4=NC=CN=C4C=C3; test: as above
In short: as §1

Row | Target | log2 fold change
34 | TYRO3 (UniProt Q06418) | inactive: -0.13
35 | UBE2M (UniProt M0QX69) | inactive: 0.166
36 | TUT7 (UniProt Q5VYS8) | inactive: -0.003
37 | TTC17 isoform 2 (UniProt Q96AE7) | inactive: -0.105
38 | TSPYL4 (UniProt Q9UJ04) | inactive: 0.012
39 | TUBGCP5 (UniProt Q96RT8) | inactive: -0.017
40 | U2AF1L5 (UniProt P0DN76) | inactive: -0.036
41 | TTC37 (UniProt Q6PGP7) | inactive: -0.694
42 | TUBGCP6 (UniProt Q96RT7) | inactive: 0.044
43 | TSPAN31 (UniProt Q12999) | inactive: 0.052
44 | TUSC2 (UniProt O75896) | inactive: -0.021
45 | TST (UniProt Q16762) | inactive: 0.134
46 | TUBA4A (UniProt C9JJQ8) | inactive: 0.138

compound: CCCCN(Cc1ccc(C(=O)NO)cc1)C(=O)Nc1ccccc1 [Nexturastat A]; test: as above
In short: as §1

Row | Target | log2 fold change
47 | UBE2J2 isoform 3 (UniProt Q8N2K1) | inactive: 0.028
48 | TYRO3 (UniProt Q06418) | inactive: 0.142
49 | TUT7 (UniProt Q5VYS8) | inactive: 0.481
50 | TYW5 (UniProt A2RUC4) | inactive: 0.087
51 | TSPAN17 isoform 4 (UniProt Q96FV3) | inactive: -0.093
52 | TXNRD1 isoform 7 (UniProt Q16881) | inactive: 0.221
53 | TUBGCP5 (UniProt Q96RT8) | inactive: -0.081
54 | TWNK (UniProt Q96RR1) | inactive: 0.141
55 | TTC37 (UniProt Q6PGP7) | inactive: 0.474
56 | TWISTNB (UniProt Q3B726) | inactive: 0.061
57 | TSPAN31 (UniProt Q12999) | inactive: -0.125
58 | TTK (UniProt P33981) | inactive: 0.358
59 | TUSC2 (UniProt O75896) | inactive: -0.107
60 | TST (UniProt Q16762) | inactive: 0.108

compound: CCCS(=O)(=O)Nc1ccc(F)c(C(=O)c2c[nH]c3ncc(-c4ccc(Cl)cc4)cc23)c1F [vemurafenib]; test: as above
In short: as §1

Row | Target | log2 fold change
61 | TTC26 | active: -0.598
62 | UBE2J2 isoform 3 (UniProt Q8N2K1) | inactive: 0.214
63 | TVP23C (UniProt Q96ET8) | inactive: -0.022
64 | TYW5 (UniProt A2RUC4) | inactive: -0.01
65 | TSPYL4 (UniProt Q9UJ04) | inactive: -0.107
66 | TXNRD1 isoform 7 (UniProt Q16881) | inactive: -0.123
67 | TSKU (UniProt Q8WUA8) | inactive: 0.141
68 | U2AF1L5 (UniProt P0DN76) | inactive: 0.019
69 | TWNK (UniProt Q96RR1) | inactive: 0.127
70 | TTC37 (UniProt Q6PGP7) | inactive: -0.181
71 | TWISTNB (UniProt Q3B726) | inactive: 0.337
72 | TTK (UniProt P33981) | inactive: -0.04
73 | TST (UniProt Q16762) | inactive: 0.091
74 | TUBA4A (UniProt C9JJQ8) | inactive: 0.053
75 | UBE2L5, A0A1B0GUS4 | inactive: 0.097
